# According to PubChem BioAssay AID2685 (National Center for Advancing Translational Sciences (NCATS), 2010):
# The list shows a part of the results. Shown are side measurements of this screen, not its main read-out; they come without a call. Most of these compounds were active or inconclusive in the main read-out, so they are no random draw. The note in brackets gives the kind of curve behind each potency; many fits are weak.
# Test: qHTS Assay for Lipid Storage Modulators in Drosophila S3 Cells;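 on cell number change: cells counted by Cell Tracker Red CMTPX staining in the red channel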
# Settings: BODIPY lipid droplet fluorescence, 18-24 h; for cell number change: measured here: cell count max response, cells fed with added oleic acid
# Procedure, shortened: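 Laser-scanning cytometry quantifies lipid droplet accumulation (500–530 nm total intensity; droplet/cell object ratio) in oleic acid-fed (400 uM added) Drosophila S3 cells treated with a concentration series. 20 uM Triacsin C defined 100% inhibition.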
# [1] = measured here: cell number channel AC50, cells fed with added oleic acid
# [2] = measured here: lipid fluorescence (Fed channel) AC50, cells fed with added oleic acid
Compound,cell number change [%],AC50 [1],AC50 [2]
N#Cc1c(-c2ccccc2)nc(SCc2cccc(C(F)(F)F)c2)[nH]c1=O,-37.4,"20.6 µM [falling, single point]","18.4 µM [falling, single point]"
CCNC(=O)C1CC(=O)N(c2ccc(Br)cc2)C1 (stereo unspecified),-4.69,,"23.1 µM [rising, single point]"
Cc1cc(NC(=O)c2ccccc2)ccc1NC(=O)Cc1ccccc1,15,,"29.1 µM [falling, single point]"
CC(=O)Nc1c(C(=O)N2CCCCCC2)cnn1-c1ccccc1,-88.8,"29.1 µM [falling, single point]","3.26 µM [rising, single point]"
O=S(=O)(Nc1cc(Sc2cccc3cccnc23)c(O)c2ccccc12)c1ccc(F)cc1,-43.2,"11.6 µM [falling, partial curve]","4.61 µM [falling, full curve]"
NS(=O)(=O)c1ccc(CCNC(=O)Cc2ccc(Cl)cc2)cc1,-22,,
COc1ccc(N2CCN(CC(=O)NCc3ccccc3)CC2)cc1,9.59,"3.66 µM [falling, partial curve, poor fit]",
O=C(NN1CCOCC1)c1cc(-c2cccs2)nc2ccccc12,30.1,"25.9 µM [rising, single point]",
COc1ccc(Cn2c(=O)[nH]c3cc(C(=O)NCCCN4CCCC4=O)ccc3c2=O)cc1,1.35,,"18.4 µM [rising, single point]"
C/C(=N/NC(=O)c1ccncc1)c1ccc(NC(=O)c2ccccc2)cc1,19.6,,
Cc1ccccc1CC(=O)N1CCCC1,-5.56,,"29.1 µM [rising, single point]"
O=C(c1cc(COc2ccc(F)cc2Cl)on1)N1CC2C[C@@H]3CC1C[C@H](C2)C3,-65.3,"18.4 µM [falling, single point]","5.17 µM [falling, single point]"
COc1c(/C=N/Nc2ccc(C(=O)O)cc2)c(CCN(C)C(C)=O)cc2c1OCO2,26.6,"0.731 µM [rising, full curve, poor fit]",
COc1ccc(/C=C2\SC(N)=NC2=O)cc1Br,5.87,,"29.1 µM [falling, single point]"
COc1cccc(NC(=O)CN(C)S(=O)(=O)c2ccc3[nH]c(=O)oc3c2)c1,13.9,,"0.13 µM [falling, single point]"
O=[N+]([O-])c1ccccc1CN1CCN(Cc2ccccn2)CC1,2.94,,
CCCNC(=O)C1CCN(S(=O)(=O)c2c(C)noc2/C=C\c2ccc(OC)cc2)CC1,46.3,"5.8 µM [rising, partial curve]","2.91 µM [rising, partial curve]"

# 3 structures already listed, ordered by length of the SMILES, ascending:
Compound,cell number change [%],AC50 [1],AC50 [2]
COc1ccc(N2CCN(CC(=O)NCc3ccccc3)CC2)cc1,9.59,"3.66 µM [falling, partial curve, poor fit]",
O=[N+]([O-])c1ccccc1CN1CCN(Cc2ccccn2)CC1,2.94,,
C/C(=N/NC(=O)c1ccncc1)c1ccc(NC(=O)c2ccccc2)cc1,19.6,,
